Reference: PubChem BioAssay AID1224830 (NIAID, 2016)

- Test: 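Regulators of TLR4 signalling towards TNF-alpha in macrophage-like cells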 (primary screen)
- System: human THP-1 monocytic leukaemia cells, TNF dual-luciferase reporter clone, PMA-differentiated to macrophage-like cells
- Knock-down reagent: siRNA pool against human genes, 50 nM
- Duration: LPS for 4 h, given about 3 days after siRNA transfection
- Conditions: bacterial LPS (TLR4 ligand), 10 ng/ml
- Measured: 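TNF firefly reporter luminescence divided by renilla, normalised to the plate median, then turned into a robust z-score for each replicate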
- Scale: TNF reporter robust z-score: higher = stronger TNF reporter response to LPS
- Hit rule: 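a well is active when its z-score exceeds 2.8 or falls below -1.5; control wells carry no call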
Shown is a random part of about 18,000 reagents. Over the whole deposit, about 2,900 (16%) got an active call. 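Calls are made per well; low scores hint the gene aids the LPS response, high scores that it dampens it.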 Entries without a mark were called inactive. Repeated entries: four replicate wells of each siRNA pool.

no.	gene knocked down	TNF reporter robust z-score
1	GREM2	0.77
2	GREM2	2.31
3	GREM2	-0.46
4	GREM2	-0.47
5	BARD1	-0.09
6	BARD1	-0.81
7	BARD1	-0.04
8	BARD1	0.6
9	TMA7	0.42
10	TMA7	-0.84
11	TMA7	-0.48
12	TMA7	-0.57
13	RPL34	0.71
14	RPL34	1.24
15	RPL34	0.78
16	RPL34	1.7
17	ALKBH8	0.11
18	ALKBH8	-0.09
19	ALKBH8	-0.52
20	ALKBH8	0.53
21	MORC2	1.7
22	MORC2	0.24
23	MORC2	0.11
24	MORC2	1.52
25	RFT1	-0.05
26	RFT1	0.33
27	RFT1	0.23
28	RFT1	0.7
29	ZC3H15	0.81
30	ZC3H15	2.37
31	ZC3H15	1.62
32	ZC3H15	2.43
33	H1-2	-1.13
34	H1-2	-0.27
35	H1-2	-0.44
36	H1-2	0.06
37	TMEM121B	-1.06
38	TMEM121B	-0.8
39	TMEM121B	-1.68 (active)
40	TMEM121B	-0.87
41	UPP2	0.62
42	UPP2	0.81
43	UPP2	0.98
44	UPP2	0.39
45	CACNA1A	0.53
46	CACNA1A	1.32
47	CACNA1A	1.2
48	CACNA1A	1.1
49	L2HGDH	-0.69
50	L2HGDH	-0.71
51	L2HGDH	-1.03
52	L2HGDH	-1.59 (active)
53	HAPLN1	-0.26
54	HAPLN1	0.48
55	HAPLN1	0.45
56	HAPLN1	1.54
57	IL17RC	-0.42
58	IL17RC	-0.16
59	IL17RC	0.49
60	IL17RC	-0.36
61	HOXB1	-0.02
62	HOXB1	0.28
63	HOXB1	0.4
64	HOXB1	0.48
65	DLK2	0.21
66	DLK2	0.9
67	DLK2	0.27
68	DLK2	1.17
69	NOP2	-1.34
70	NOP2	-1.1
71	NOP2	-0.89
72	KIR2DL5B	-1.1
73	KIR2DL5B	-0.9
74	KIR2DL5B	-1.43
75	KIR2DL5B	-1.47

Part of the list above, set out differently:
{"gene knocked down": "GREM2", "TNF reporter robust z-score": -0.46}
{"gene knocked down": "GREM2", "TNF reporter robust z-score": -0.47}
{"gene knocked down": "BARD1", "TNF reporter robust z-score": -0.09}
{"gene knocked down": "BARD1", "TNF reporter robust z-score": -0.81}
{"gene knocked down": "BARD1", "TNF reporter robust z-score": -0.04}
{"gene knocked down": "BARD1", "TNF reporter robust z-score": 0.6}
{"gene knocked down": "TMA7", "TNF reporter robust z-score": 0.42}
{"gene knocked down": "TMA7", "TNF reporter robust z-score": -0.84}
{"gene knocked down": "TMA7", "TNF reporter robust z-score": -0.48}
{"gene knocked down": "TMA7", "TNF reporter robust z-score": -0.57}
